## Cell number after 72 h of treatment

From a melanoma drug combination screen (doi:10.1371/journal.pone.0140310); values rounded.

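Human melanoma cells were exposed to a pair of drugs for 72 h in 1,536-well plates and read by automated microscopy after fixing and staining. The read-out is cell count (nuclei) in % of the DMSO control; lower values mean stronger growth inhibition or killing. Concentrations were fixed for each drug; these are the higher of two levels. No replicate spread is given; individual values may be noisy.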
An unselected part of the screen is shown.
A dash means that no value is listed here.

Every entry is a combination with indole-3-carbinol at 4000 nM: OCc1c[nH]c2ccccc12

Drug key:
MK-2206: NC1(c2ccc(-c3nc4ccn5c(=O)[nH]nc5c4cc3-c3ccccc3)cc2)CCC1 at 2000 nM
U73122: COc1ccc2c(c1)CCC1C2CCC2(C)C(NCCCCCCN3C(=O)C=CC3=O)CCC12 (stereo not drawn) at 2000 nM
pioglitazone: CCc1ccc(CCOc2ccc(CC3SC(=O)NC3=O)cc2)nc1 (stereo not drawn) at 10000 nM
vismodegib: CS(=O)(=O)c1ccc(C(=O)Nc2ccc(Cl)c(-c3ccccn3)c2)c(Cl)c1 at 5000 nM
NVP-TAE684: COc1cc(N2CCC(N3CCN(C)CC3)CC2)ccc1Nc1ncc(Cl)c(Nc2ccccc2S(=O)(=O)C(C)C)n1 at 400 nM
AS-252424: O=C1NC(=O)/C(=C/c2ccc(-c3ccc(F)cc3O)o2)S1 at 5000 nM
YM155: COCC[n+]1c2c(n(Cc3cnccn3)c1C)C(=O)c1ccccc1C2=O at 2 nM
L-779450: Oc1cc(-c2nc(-c3ccccc3)[nH]c2-c2ccncc2)ccc1Cl at 1000 nM
MK-1775: C=CCn1c(=O)c2cnc(Nc3ccc(N4CCN(C)CC4)cc3)nc2n1-c1cccc(C(C)(C)O)n1 at 100 nM
ABT-263: CC1(C)CCC(c2ccc(Cl)cc2)=C(CN2CCN(c3ccc(C(=O)NS(=O)(=O)c4ccc(N[C@H](CCN5CCOCC5)CSc5ccccc5)c(S(=O)(=O)C(F)(F)F)c4)cc3)CC2)C1 at 2000 nM
everolimus: CO[C@H]1C[C@@H]2CC[C@@H](C)[C@@](O)(O2)C(=O)C(=O)N2CCCC[C@H]2C(=O)O[C@H]([C@H](C)C[C@@H]2CC[C@@H](OCCO)[C@H](OC)C2)CC(=O)[C@H](C)/C=C(\C)[C@@H](O)[C@@H](OC)C(=O)[C@H](C)C[C@H](C)/C=C/C=C/C=C/1C at 100 nM
crizotinib: C[C@@H](Oc1cc(-c2cnn(C3CCNCC3)c2)cnc1N)c1c(Cl)ccc(F)c1Cl at 1000 nM
GW441756: Cn1cc(/C=C2\C(=O)Nc3cccnc32)c2ccccc21 at 2000 nM
FK866: O=C(/C=C/c1cccnc1)NCCCCC1CCN(C(=O)c2ccccc2)CC1 at 50 nM
dorsomorphin: c1cc(-c2cnn3cc(-c4ccc(OCCN5CCCCC5)cc4)cnc23)ccn1 at 2000 nM
fingolimod: CCCCCCCCc1ccc(CCC(N)(CO)CO)cc1 at 10000 nM
vorinostat: O=C(CCCCCCC(=O)Nc1ccccc1)NO at 400 nM
tipifarnib: Cn1cncc1[C@@](N)(c1ccc(Cl)cc1)c1ccc2c(c1)c(-c1cccc(Cl)c1)cc(=O)n2C at 50 nM
KU-0063794: COc1ccc(-c2ccc3c(N4CCOCC4)nc(N4C[C@@H](C)O[C@@H](C)C4)nc3n2)cc1CO at 100 nM
bexarotene: C=C(c1ccc(C(=O)O)cc1)c1cc2c(cc1C)C(C)(C)CCC2(C)C at 10000 nM
embelin: CCCCCCCCCCCC1=C(O)C(=O)C=C(O)C1=O at 6000 nM
XAV939: Oc1nc(-c2ccc(C(F)(F)F)cc2)nc2c1CSCC2 at 10000 nM
lestaurtinib: C[C@]12O[C@H](C[C@]1(O)CO)n1c3ccccc3c3c4c(c5c6ccccc6n2c5c31)CNC4=O at 20 nM
OSI-906: C[C@]1(O)C[C@@H](c2nc(-c3ccc4ccc(-c5ccccc5)nc4c3)c3c(N)nccn32)C1 at 2000 nM
palbociclib: CC(=O)c1c(C)c2cnc(Nc3ccc(N4CCNCC4)cn3)nc2n(C2CCCC2)c1=O at 200 nM
enzastaurin: Cn1cc(C2=C(c3cn(C4CCN(Cc5ccccn5)CC4)c4ccccc34)C(=O)NC2=O)c2ccccc21 at 4000 nM
JZL184: O=C(Oc1ccc([N+](=O)[O-])cc1)N1CCC(C(O)(c2ccc3c(c2)OCO3)c2ccc3c(c2)OCO3)CC1 at 5000 nM
LFM-A13: C/C(O)=C(\C#N)C(=O)Nc1cc(Br)ccc1Br at 10000 nM

| # | Partner | C32 | WM451Lu | COLO 800 | COLO 792 | WM3619 | COLO 829 |
|---|---|---|---|---|---|---|---|
| 1 | tipifarnib | 81.4 | 59.8 | 90.0 | 69.7 | 85.1 | 88.5 |
| 2 | OSI-906 | 81.5 | 78.5 | 106 | 105 | 72.9 | 85.5 |
| 3 | KU-0063794 | 94.0 | 100 | 70.6 | 69.0 | 94.0 | 105 |
| 4 | YM155 | 107 | 41.1 | 45.1 | 68.4 | 82.3 | 80.2 |
| 5 | pioglitazone | 97.7 | 94.7 | 90.2 | 82.3 | 76.7 | 105 |
| 6 | LFM-A13 | 106 | 104 | 90.0 | 116 | 106 | 85.9 |
| 7 | embelin | 86.1 | 84.1 | 47.1 | 39.9 | 90.7 | 40.0 |
| 8 | everolimus | 88.0 | 91.4 | 81.8 | 62.2 | 57.9 | 74.8 |
| 9 | MK-1775 | 80.9 | 110 | 59.9 | 64.5 | - | 100 |
| 10 | NVP-TAE684 | 93.0 | 82.1 | 51.0 | 76.2 | 53.2 | 110 |
| 11 | enzastaurin | 104 | 116 | 106 | 83.9 | 75.3 | 94.2 |
| 12 | GW441756 | 91.6 | 109 | 81.5 | 105 | 76.4 | 107 |
| 13 | L-779450 | 69.5 | 56.1 | 86.1 | 109 | 72.7 | 67.3 |
| 14 | MK-2206 | 85.4 | 82.5 | 72.2 | 51.5 | 151 | 81.0 |
| 15 | JZL184 | 96.9 | 101 | 75.4 | 98.2 | 111 | 111 |
| 16 | lestaurtinib | 111 | 104 | 50.2 | 51.4 | 103 | 110 |
| 17 | vismodegib | 113 | 109 | 61.1 | 81.8 | 88.2 | 104 |
| 18 | crizotinib | 83.2 | 89.0 | 44.1 | 71.7 | 102 | 80.9 |
| 19 | bexarotene | 142 | 107 | 139 | 83.2 | 76.9 | 50.8 |
| 20 | palbociclib | 88.4 | 80.1 | 101 | 71.5 | 68.2 | 96.4 |
| 21 | FK866 | 94.7 | 87.6 | 26.2 | 50.2 | 77.5 | 71.7 |
| 22 | ABT-263 | 100 | 78.7 | 38.0 | 15.8 | 69.1 | 86.0 |
| 23 | vorinostat | 97.8 | 74.6 | 71.2 | 91.4 | 76.6 | 87.7 |
| 24 | XAV939 | 114 | 79.5 | 87.7 | 89.4 | 79.5 | 90.1 |
| 25 | dorsomorphin | 90.1 | 88.2 | 85.7 | 102 | 71.0 | 75.8 |
| 26 | fingolimod | 14.1 | 6.2 | 9.7 | 0.7 | 8.0 | 31.6 |
| 27 | AS-252424 | 94.6 | 92.3 | 106 | 86.0 | 92.5 | 91.3 |
| 28 | U73122 | 45.4 | 75.1 | 63.9 | 92.1 | 73.2 | 88.4 |

For reference, 3 entries once more:

| Partner | C32 | WM451Lu | COLO 800 | COLO 792 | WM3619 | COLO 829 |
|---|---|---|---|---|---|---|
| palbociclib | 88.4 | 80.1 | 101 | 71.5 | 68.2 | 96.4 |
| NVP-TAE684 | 93.0 | 82.1 | 51.0 | 76.2 | 53.2 | 110 |
| lestaurtinib | 111 | 104 | 50.2 | 51.4 | 103 | 110 |